Here are results for one sequence from PMC4813127.

This data set addresses T1, ROC1 (regulator of CBF1 + IDD protein) (UniProt B7ERE7).
T1 sequence (looked up, limits assumed): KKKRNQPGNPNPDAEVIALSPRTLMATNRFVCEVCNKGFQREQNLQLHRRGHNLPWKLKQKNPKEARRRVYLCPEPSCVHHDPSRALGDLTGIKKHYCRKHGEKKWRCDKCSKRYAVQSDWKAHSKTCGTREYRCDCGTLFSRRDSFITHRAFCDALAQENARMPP
As to the kind of experiment: competition with a labelled probe. As to conditions: unlabeled mP1 against labeled P1, only slightly interfered; 25 mM HEPES-KOH pH 7.5, 100 mM KCl, 0.1 mM EDTA, 10% glycerol, 1 mM DTT, 1 ug poly(dI-dC), 1 ug GST-ROC1, 20 uL, room temperature 30 min; 8% PAGE in 0.5X TBE; recombinant protein; protein details: N-terminal GST (pGEX5x-1); label: unlabeled competitor.

Weaker means in comparison with the reference protein, sequence or condition of that experiment. Where a protein sequence is shown, tags need not be part of it.

As to “GGATCCGTCTTTTTTTGATAGCTTG (double strand) [mP1 (CCTGTTT to TTTTTTT)]”, the binding result is listed as “binds more weakly”.
